Results published in paper PMC12259267, “Disruption of the KLHL37–N-Myc complex restores N-Myc degradation and arrests neuroblastoma growth in mouse models” (The Journal of Clinical Investigation, 2025).
Results are given in words; binding and its absence hold for the method and conditions named. In cells and extracts the contact can be indirect. Some binding calls cover weakened binding; strength is not graded here.

Protein sequences, listed by entry. Tags and fused reporters are not part of them.
UniProt P04198: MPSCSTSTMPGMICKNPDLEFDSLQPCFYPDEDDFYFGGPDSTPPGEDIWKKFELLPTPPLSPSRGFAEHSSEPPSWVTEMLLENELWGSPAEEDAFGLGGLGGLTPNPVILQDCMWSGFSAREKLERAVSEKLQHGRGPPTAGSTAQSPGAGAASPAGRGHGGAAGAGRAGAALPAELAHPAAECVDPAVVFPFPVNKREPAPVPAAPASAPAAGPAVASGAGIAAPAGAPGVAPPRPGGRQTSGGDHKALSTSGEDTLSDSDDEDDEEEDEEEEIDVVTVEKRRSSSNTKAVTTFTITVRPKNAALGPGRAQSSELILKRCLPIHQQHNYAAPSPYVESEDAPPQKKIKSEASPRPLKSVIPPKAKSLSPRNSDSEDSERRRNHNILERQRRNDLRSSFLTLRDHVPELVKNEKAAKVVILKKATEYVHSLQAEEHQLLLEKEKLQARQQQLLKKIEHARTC
UniProt Q969H0: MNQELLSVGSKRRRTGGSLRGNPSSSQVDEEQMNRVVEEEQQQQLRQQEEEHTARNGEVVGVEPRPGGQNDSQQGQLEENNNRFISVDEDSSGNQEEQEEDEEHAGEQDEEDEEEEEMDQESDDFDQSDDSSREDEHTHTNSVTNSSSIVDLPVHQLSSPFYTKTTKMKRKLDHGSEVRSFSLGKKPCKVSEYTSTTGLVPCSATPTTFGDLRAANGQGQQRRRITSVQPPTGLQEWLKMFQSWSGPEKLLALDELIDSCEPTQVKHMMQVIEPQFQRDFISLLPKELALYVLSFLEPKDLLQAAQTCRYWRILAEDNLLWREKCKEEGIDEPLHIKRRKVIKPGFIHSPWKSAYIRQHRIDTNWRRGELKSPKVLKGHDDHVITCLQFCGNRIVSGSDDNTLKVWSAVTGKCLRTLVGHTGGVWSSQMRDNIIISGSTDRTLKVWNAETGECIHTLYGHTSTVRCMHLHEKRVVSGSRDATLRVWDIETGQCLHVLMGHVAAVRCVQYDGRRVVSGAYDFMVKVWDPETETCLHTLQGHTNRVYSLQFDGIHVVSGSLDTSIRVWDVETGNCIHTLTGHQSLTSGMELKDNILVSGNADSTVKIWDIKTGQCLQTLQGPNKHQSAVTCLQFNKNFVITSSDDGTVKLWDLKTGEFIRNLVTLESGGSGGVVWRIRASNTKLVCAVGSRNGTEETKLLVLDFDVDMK

Experiments:
[1] = molecular target: GST–N-Myc recombinant protein (UniProt P04198); test: pull-down; in vitro competition: recombinant GST or GST–N-Myc preincubated with KLHL37-His at RT, then with lysate of HEK-293T overexpressing FBXW7-HA at 4°C overnight; IP with GST resin; only the target purified
[2] = molecular target: endogenous N-Myc (human (endogenous in SK-N-BE(2))) (UniProt P04198); test: co-IP; cells (not named) transfected 48 hours to overexpress KLHL37; interaction of endogenous N-Myc and FBXW7 by co-IP and immunoblotting

binding [1] | binding [2] | Substance
binds | – | FBXW7-HA (from UniProt Q969H0 1-707)
– | binds | endogenous FBXW7 (from UniProt Q969H0 1-707)
